In patent US20240002467A1, “COMPOSITIONS AND METHODS OF INHIBITING THE BINDING OF PLASMA IGG AUTOANTIBODIES TO SEROTONIN 2A RECEPTOR” (UNITED STATES GOVERNMENT AS REPRESENTED BY THE DEPARTMENT …, priority 2020, published 2024):
“And” between values parts separate entries of the source, which are not always exact repeats. Equal values may be shown once. “Also recorded” adds a separate entry of the source. At least one peptide structure holds a part that was inferred or is arguable (an end, a ring closure or a residue). Ends that are not written are not given here.

Assays:
[1] = test system: male Zucker diabetic fatty rats; test: Tail cuff blood pressure in male ZDF rats after IP peptide; type: in vivo, rat; settings: for acute or chronic blood pressure-lowering effect, in words: Experiment 3: two ZDF rats, scrambled 1 mg/kg single IP, up to 168 hours
Procedure: Animals. Male ZDF and lean (+/?) Zucker rats were obtained from Charles River Laboratories (Kingston, NY) at approximately 6-7 weeks of age. The rats were single housed upon arrival, without enrichment. Rats were acclimatized for two weeks prior to experimental procedures. Rats were provided ad libitum access to food and water and maintained in a 12 h light/dark cycle with lights on at 0630. The procedures occurred during the light phase of the cycle. Blood pressure testing (following acute or chronic administration of the decoy peptides) was conducted in three separate cohorts of animals.
Cohort 1: Three 25-week-old male ZDF and three, age-matched, male Zucker lean rats (ZLR) treated with IP decoy peptide 2 (ZDF) vs saline (vehicle) (ZLR).
Cohort 2: Eleven-week old male ZDF (n=5) and Zucker lean rats (n=4) treated with IP decoy peptide 2.
Cohort 3: Twelve 8.5-week old male Zucker diabetic fatty rats were randomly assigned to one of three treatment groups (n=4/group). The rats underwent baseline blood pressure determinations using tail-cuff plethysmography technique. Next, the animals who expressed baseline hypertension, i.e., blood pressure >135/85, received either a 1 mg/kg intraperitoneal injection of pegylated decoy peptide 2 (n=3); a 2 mg/kg intraperitoneal dose of a scrambled decoy peptide 2 (n=4); or vehicle (i.e., sterile saline) (N=4). Blood pressure was determined at 15 minutes, 45 minutes, 4 hours, 8 hours, 24 hours, 30 and 48 hours following single IP injection. One week later, the same two groups of ZDF rats received either 0.75 mg/kg IP pegylated decoy peptide 2, 2 mg/kg scrambled decoy peptide 2, or sterile saline; and blood pressure was determined at similar timepoints. Two weeks later, two groups of 12-week-old ZDF rats (n=6/group) including those that had previously received acute peglyated decoy peptide 2 or scrambled decoy peptide 2 were treated on an alternative daily schedule with IP, free decoy peptide 2 (2 mg/kg) vs IP scrambled decoy peptide 2 (2 mg/kg) continuously for 13 weeks until sacrifice at 25 weeks of age. Body weight was determined immediately before sacrifice and after perfusion; and hearts were excised and weighed for determination of the heart-to-(perfused) body weight ratio.
(§1) Blood pressure monitoring. Tail cuff blood pressure measurement was performed using an automated CODA noninvasive blood pressure system (Kent Scientific, Torrington, CT). Rats were placed on an insulated warming platform in a well-heated room to ensure proper body temperature. Cuff monitors were provided in different sizes to accommodate rats of different ages and having different body weights. After the animal was positioned in the clear plastic restraint holder, the appropriate-sized cuff was slid over the rat's tail.
Statistical Analysis. Comparisons were made using Student's unpaired t-test (Tables 3-6, 9 and FIG. 18) or time series analysis (Tables 7, 8, FIG. 16).
as §1, with “CT.).” for “CT).”
Experiment 1: Four 12-week-old male ZDF rats were randomly assigned to receive either a single IP injection of a scrambled sequence (SEQ ID NO: 7) of Peptide ID #2 (SEQ ID NO: 2) at 1 mg/kg concentration or a 1 mg/kg concentration of myristolated Peptide ID #2 (SEQ ID NO: 9). Blood pressure was determined using tail cuff plethysmography (Kent Scientific) at 1, 4, 6, 48 and 72 hours post-injection.
Experiment 2: Six 12-week-old male ZDF rats were assigned to each of three treatment groups (N=2/group). […]

[2] = test system: Zucker diabetic fatty rats; test: Heart-to-body weight ratio after chronic treatment of male ZDF rats; type: in vivo, rat; settings: male ZDF rats (n=5/group), 10 weeks alternate daily IP 2 mg/kg, sacrifice at 25 weeks
Zucker lean rats = test: Tail cuff blood pressure in Zucker lean rats after IP decoy peptide 2; type: in vivo, rat
[3] = test system: Zucker diabetic fatty rats; test: Heart weight of ZDF rats at sacrifice (30 weeks); type: in vivo, rat; settings: ZDF rats sacrificed at 30 weeks of age
[4] = test system: human 5-HT2AR-targeting IgG autoantibodies; settings: cited from earlier work
[5] = test system: Zucker diabetic fatty rats; test: Plasma triglycerides after chronic IP treatment of ZDF rats; type: in vivo, rat
[6] = Body weight trajectory of ZDF rats under chronic treatment; type: in vivo, rat
[7] = Food consumption during 24-hour period ON vs OFF decoy peptide 2; type: in vivo, rat; settings: ZDF rats
[8] = test system: Zucker diabetic fatty rats; test: Plasma hepatic transaminases (AST, ALT) after chronic IP treatment of ZDF rats; type: in vivo, rat; settings: 2 mg/kg IP alternate daily weeks 10-16, blood at week 16, vs saline
Procedure: Two groups of Zucker diabetic fatty rats (N=4 each) were treated with alternate daily intraperitoneal dose (IP) of either a composition comprising decoy peptide 2 (SEQ ID NO: 2) (2 mg/kg) or an equal volume of sterile saline (vehicle) for […] (between weeks 10-16). Blood was obtained at week 16 for determination of plasma hepatic transaminases (AST, ALT) and plasma triglycerides.

[9] = 11-week-old male ZDF rats (N=4/group), single IP Myr-peptide 2 2 mg/kg vs scrambled 1 mg/kg (reference = 0), over 6 days
[10] = 11-week-old male ZDF rats (N=5), before 2 mg/kg IP, mean +/- SD
[11] = 11-week-old male ZDF rats, 2 mg/kg IP
[12] = 25-week-old male ZDF rats (N=3), single 2 mg/kg IP
[13] = 25-week-old male ZDF rats, 2 mg/kg IP, 15-40 min
[14] = male ZDF rats before single 2 mg/kg IP, unconjugated: two 25-week-old, myristolated: four 11-12-week-old
[15] = male ZDF rats, single 2 mg/kg IP, unconjugated: two 25-week-old, myristolated: four 11-12-week-old
[16] = three 25-week-old male ZDF rats, 2 mg/kg IP
[17] = three 25-week-old male ZDF rats, 30 minutes before 2 mg/kg IP
[18] = three 25-week-old male ZDF rats, mean +/- SD
[19] = two 25-week-old male ZDF rats, single 2 mg/kg IP
[20] = 11-week-old Zucker lean rats #1-#4 (individual animals), 2 mg/kg IP, 2 mg/kg
[21] = 11-week-old Zucker lean rats #1-#4 (individual animals), before 2 mg/kg IP

LASNDCLD [scrambled decoy peptide 2, reference compound]
Estimate: diastolic blood pressure lowering effect vs scrambled peptide (time series) [1, 9]: 0 | Estimate: systolic blood pressure lowering effect vs scrambled peptide (time series) [1, 9]: 0 | systolic or diastolic blood pressure-lowering effect, in words ([1]; 25-week-old male ZDF rats (N=3), scrambled 2 mg/kg IP, up to 24 hours): no significant systolic or diastolic blood pressure-lowering effect | effect on diastolic blood pressure, in words ([1]; Experiment 1: male ZDF rats (N=2/group), 1 mg/kg single IP): did not cause significant diastolic blood pressure (DBP) lowering | effect on mean arterial blood pressure, in words ([1]; Experiment 1: scrambled 1 mg/kg single IP): did not cause significant mean arterial blood pressure-lowering | change in systolic blood pressure, in words ([1]; Experiment 2: scrambled 1 mg/kg IP (N=2)): did not cause a significant change in systolic blood pressure | acute or chronic blood pressure-lowering effect, in words ([1]; listed as Scrambled peptide): no significant acute or chronic blood pressure-lowering effect | acute or chronic blood pressure-lowering effect, in words ([1]; listed as scrambled peptide): did not significantly reduce systolic, diastolic or mean arterial blood pressure | mean heart-to-body weight ratio [2]: 4.0 mg/g

SCLLADDN [decoy peptide 2]
diastolic blood pressure, 15-45 mins post-injection ([1]; 11-week-old male ZDF rats (N=5), 2 mg/kg IP, mean +/- SD): 91 + 15 (N = 17) | diastolic blood pressure, before [1, 10]: 118 + 22 (N = 10) | systolic blood pressure, before [1, 10]: 167 +/− 24 (N = 10) | MAP after injection [1, 11]: 106 | Mean acute DBP-lowering [1, 11]: Mean acute DBP-lowering (118-91)/118 = 23% | Mean acute MAP-lowering [1, 11]: 21% | Mean acute SBP-lowering [1, 11]: Mean acute SBP-lowering (167-135)/167 = 19% | MAP before injection ([1]; 11-week-old male ZDF rats, before 2 mg/kg IP): 134 | duration for which blood pressure-lowering was sustained [1, 12]: ≥ 24 h | systolic and diastolic blood pressure-lowering [1, 12]: 25-30% | time at which blood pressure returned to baseline elevated levels [1, 12]: 48 h | Percent lowering of diastolic blood pressure after peptide [1, 13]: Percent lowering of diastolic blood pressure after peptide (112-65)/112 = 42 | Percent lowering of mean arterial pressure [1, 13]: 40% | Percent lowering of systolic blood pressure after peptide [1, 13]: Percent lowering of systolic blood pressure after peptide (161-95)/161 = 41 | mean arterial pressure after injection [1, 13]: 75 | mean arterial pressure before injection ([1]; 25-week-old male ZDF rats, before 2 mg/kg IP): 125 | duration of drops in systolic and diastolic blood pressure on rechallenge ([1]; 25-week-old male ZDF rats, rechallenge 1 week later, single 2 mg/kg IP): ≥ 4 h | onset of acute blood pressure-lowering after IP injection ([1]; 25-week-old male ZDF rats, single 2 mg/kg IP): 15 to 40 min | acute mean systolic and diastolic blood pressure-lowering ([1]; five of five 11-week-old male ZDF rats, 2 mg/kg IP): 19-23% | reductions in systolic and diastolic blood pressure after 24 hours ([1]; male ZDF rat, single IP 2 mg/kg): 19-27% | mean diastolic BP, Baseline [1, 14]: 96 | mean systolic BP, Baseline [1, 14]: 130 | mean diastolic BP, 24 hours [1, 15]: 73 | mean diastolic BP, 48 hours [1, 15]: 93 | mean systolic BP, 24 hours [1, 15]: 105 | mean systolic BP, 48 hours [1, 15]: 137 | duration of blood pressure lowering ([1]; male ZDF rats, single IP 2 mg/kg, unconjugated): 24 to 48 h | diastolic blood pressure, 15-40 mins post-injection [1, 16]: 65 ± 11 mm Hg | systolic blood pressure, 15-40 mins post-injection [1, 16]: 95 ± 13 mm Hg | diastolic blood pressure, Day 0 pre-injection [1, 17]: 112 ± 2 mm Hg | systolic blood pressure, Day 0 pre-injection [1, 17]: 161 ± 21 mm Hg | diastolic blood pressure, Day 2 (two days before injection) [1, 18]: 101 ± 23 mm Hg | systolic blood pressure, Day 2 (two days before injection) [1, 18]: 166 ± 24 mm Hg | acute decreases in systolic and diastolic blood pressure ([1]; three 25-week-old male ZDF rats, single 2 mg/kg IP): 41-42% | mean diastolic BP, 6 hours [1, 19]: 71 | mean systolic BP, 6 hours [1, 19]: 109 | diastolic blood pressure 30 minutes after injection (Zucker lean rats; [20]): 91 and 78 and 83 and 98 | systolic blood pressure 30 minutes after injection (Zucker lean rats; [20]): 130 and 120 and 122 and 132 | diastolic blood pressure before injection (Zucker lean rats; [21]): 102 and 72 and 80 and 85 | systolic blood pressure before injection (Zucker lean rats; [21]): 149 and 130 (2×) and 124 | acute effect on blood pressure in hypertensive lean rat, in words (Zucker lean rats; one of four Zucker lean rats with baseline hypertension, 2 mg/kg IP): acutely lowered systolic and diastolic blood pressure to statistically significantly lower levels | acute effect on blood pressure in normotensive rats, in words (Zucker lean rats; three of four 11-week-old Zucker lean rats with normal baseline, 2 mg/kg IP): did not significantly alter blood pressure acutely | mean heart weight [3]: 1.32 g | endothelial and neuronal cell toxicity of autoantibodies in vitro [4]: prevented | mean plasma triglyceride level, reduction vs vehicle ([5]; ZDF rats, 2 mg/kg IP alternate daily 5 weeks (age 10-16 wks), vs saline): 47% | increase in mean plasma triglycerides ([5]; ZDF rats, between week 16-22): 8% | plasma triglyceride level vs saline-treated, in words ([5]; ZDF rats, chronic 2 mg/kg IP): Two-fold lower | mean plasma triglyceride ([5]; ZDF rats, end of week 22, alternate daily 2 mg/kg IP): 509 mg/dL | overall reduction in mean triglyceride level ([5]; total 9 weeks of alternate daily 2 mg/kg over week 10-22, vs saline): 56% | mean body weight lower than in saline-treated rats ([6]; ZDF rats at age 16 weeks, after 6 weeks treatment 2 mg/kg IP alternate daily): 22% | trajectory of weight gain, in words ([6]; ZDF rats, alternate daily 2 mg/kg IP, 2 mg/kg): flatter; also recorded: flattening | reduction in food consumption ON vs OFF peptide injections ([7]; matching 24-hour period week 22-23 (ON) vs week 21-22 (OFF)): 18.3% | food consumption in 24-hour period ON peptide ([7]; week 22-23, alternate daily 2 mg/kg IP): 44.5 g | mean heart-to-body weight ratio [2]: 3.3 mg/g | mean plasma ALT [8]: trend of a statistically significant difference; also recorded: lower hepatic enzyme (ALT)
